PubChem BioAssay AID743454 – Peter MacCallum Cancer Centre | 2014
In all, the deposit lists about 18,000 reagents; below is an unselected part. 450 of all reagents (2.5%) count as active. 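Single biological run; no consistent viability z cut-off exists, so the class columns, not z-scores, define the calls.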

Assay: 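Knock-downs lowering viability or raising caspase 3/7 activity in vorinostat-treated resistant cells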 (primary screen)
Cell system: human HCT116-VR colon cancer cells, selected for vorinostat resistance
Reagent: siRNA pool against human genes, 40 nM siRNA pool
Duration: vorinostat for 24 h, read-out about 72 h after transfection
Treatment: vorinostat at 2.5 µM final
Measured: 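Cell viability by CellTiter-Fluor and caspase 3/7 activity by luminescence, each scaled to mock wells per plate, duplicates averaged, then robust z-scored over all plates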
Scale: viability robust z-score: higher = more viable cells than screen typical; caspase robust z-score: higher = more caspase 3/7 activity than screen typical
Active means: 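a knock-down is a hit when classed RV1 or RV2 for lowered viability, or CA1 or CA2 for caspase activation; those lethal without drug were dropped; hits were retested singly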

With MYLK (myosin light chain kinase), what does the deposit list?
viability hit class: no change; caspase hit class: no change; viability robust z-score: -0.42; caspase robust z-score: -0.69; activity call: inactive

How did the screen score IL16 (interleukin 16)?
viability hit class: no change; caspase hit class: no change; viability robust z-score: 0.06; caspase robust z-score: 0.27; activity call: inactive

With RNF17 (ring finger protein 17), how do the results read?
viability hit class: no change; caspase hit class: no change; viability robust z-score: 0.31; caspase robust z-score: -0.78; activity call: inactive

With SLC25A12, what was measured?
viability hit class: no change; caspase hit class: no change; viability robust z-score: 1.22; caspase robust z-score: 0.92; activity call: inactive

For CALML3 (calmodulin like 3), how do the results read?
viability hit class: no change; caspase hit class: no change; viability robust z-score: -0.72; caspase robust z-score: 3.27; activity call: inactive

What is on record for OR11A1 (olfactory receptor family 11 subfamily A member 1)?
viability hit class: no change; caspase hit class: no change; viability robust z-score: 0.31; caspase robust z-score: -0.29; activity call: inactive

For ZNF41 (zinc finger protein 41), what does the deposit list?
viability hit class: no change; caspase hit class: no change; viability robust z-score: -0.4; caspase robust z-score: -0.34; activity call: inactive

For ZNF592 (zinc finger protein 592), how do the results read?
viability hit class: no change; caspase hit class: no change; viability robust z-score: -1.61; caspase robust z-score: -0.22; activity call: inactive

Which result is listed for ADTRP (androgen dependent TFPI regulating protein)?
viability hit class: no change; caspase hit class: CA1 (caspase activation); viability robust z-score: 0.22; caspase robust z-score: 5.21; activity call: active

With SLC8B1, what does the deposit list?
viability hit class: no change; caspase hit class: no change; viability robust z-score: 0.66; caspase robust z-score: 0.15; activity call: inactive

With EBF2 (EBF transcription factor 2), what was measured?
viability hit class: no change; caspase hit class: no change; viability robust z-score: -0.6; caspase robust z-score: 0.99; activity call: inactive

What did the screen give for ENG (endoglin)?
viability hit class: no change; caspase hit class: no change; viability robust z-score: 0.66; caspase robust z-score: -0.21; activity call: inactive
